doi:10.1101/2023.01.07.523122
Results are given in words; binding and its absence hold for the method and conditions named. In cells and extracts the contact can be indirect. Some results given as binding are weak or reduced against the parent protein; the word gives no strength. Tags and fused reporters may be left off the sequences shown.

Key:
[1] = target: T1, mKate2::3xFLAG::DRL-1 (C. elegans) (UniProt Q86ME2); assay: co-IP
T1 sequence: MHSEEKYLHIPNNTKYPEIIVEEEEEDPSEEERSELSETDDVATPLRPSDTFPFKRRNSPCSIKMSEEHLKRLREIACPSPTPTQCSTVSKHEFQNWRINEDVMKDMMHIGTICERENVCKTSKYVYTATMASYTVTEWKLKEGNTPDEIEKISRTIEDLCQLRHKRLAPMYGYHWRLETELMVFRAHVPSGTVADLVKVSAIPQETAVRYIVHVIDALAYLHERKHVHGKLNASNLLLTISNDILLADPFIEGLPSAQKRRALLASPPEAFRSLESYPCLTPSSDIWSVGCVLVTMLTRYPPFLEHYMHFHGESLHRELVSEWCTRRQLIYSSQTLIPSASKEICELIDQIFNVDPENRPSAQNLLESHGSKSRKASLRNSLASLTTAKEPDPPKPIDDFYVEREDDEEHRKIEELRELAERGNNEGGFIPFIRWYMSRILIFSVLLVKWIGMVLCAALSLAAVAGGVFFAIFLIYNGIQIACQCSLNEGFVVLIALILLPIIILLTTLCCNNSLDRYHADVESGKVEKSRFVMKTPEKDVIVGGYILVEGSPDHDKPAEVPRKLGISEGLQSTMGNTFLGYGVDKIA

[2] = target: T2, 3xHA::mGL::FLR-4 (C. elegans) (UniProt Q9NLA1); assay: co-IP
T2 sequence: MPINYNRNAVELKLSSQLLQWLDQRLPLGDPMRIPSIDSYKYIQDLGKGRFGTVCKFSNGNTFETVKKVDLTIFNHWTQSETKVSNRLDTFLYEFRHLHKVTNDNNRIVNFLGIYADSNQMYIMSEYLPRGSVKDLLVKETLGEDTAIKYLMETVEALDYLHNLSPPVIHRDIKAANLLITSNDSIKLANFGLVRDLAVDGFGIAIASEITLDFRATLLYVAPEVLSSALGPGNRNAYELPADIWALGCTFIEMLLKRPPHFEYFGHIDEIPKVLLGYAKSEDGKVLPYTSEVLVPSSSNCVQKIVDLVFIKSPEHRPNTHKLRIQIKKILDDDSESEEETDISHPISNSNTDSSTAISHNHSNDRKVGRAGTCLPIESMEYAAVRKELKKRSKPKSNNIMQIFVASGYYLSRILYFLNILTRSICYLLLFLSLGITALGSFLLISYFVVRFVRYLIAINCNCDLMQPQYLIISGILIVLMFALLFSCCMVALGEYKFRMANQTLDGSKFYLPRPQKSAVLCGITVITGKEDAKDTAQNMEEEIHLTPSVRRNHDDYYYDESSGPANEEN

B1: 3xHA::mGL::FLR-4 (enzyme, UniProt Q9NLA1 1-570)
chain: MPINYNRNAVELKLSSQLLQWLDQRLPLGDPMRIPSIDSYKYIQDLGKGRFGTVCKFSNGNTFETVKKVDLTIFNHWTQSETKVSNRLDTFLYEFRHLHKVTNDNNRIVNFLGIYADSNQMYIMSEYLPRGSVKDLLVKETLGEDTAIKYLMETVEALDYLHNLSPPVIHRDIKAANLLITSNDSIKLANFGLVRDLAVDGFGIAIASEITLDFRATLLYVAPEVLSSALGPGNRNAYELPADIWALGCTFIEMLLKRPPHFEYFGHIDEIPKVLLGYAKSEDGKVLPYTSEVLVPSSSNCVQKIVDLVFIKSPEHRPNTHKLRIQIKKILDDDSESEEETDISHPISNSNTDSSTAISHNHSNDRKVGRAGTCLPIESMEYAAVRKELKKRSKPKSNNIMQIFVASGYYLSRILYFLNILTRSICYLLLFLSLGITALGSFLLISYFVVRFVRYLIAINCNCDLMQPQYLIISGILIVLMFALLFSCCMVALGEYKFRMANQTLDGSKFYLPRPQKSAVLCGITVITGKEDAKDTAQNMEEEIHLTPSVRRNHDDYYYDESSGPANEEN
For B1, the binding [1] was “binds”.

B2: mKate2::3xFLAG::DRL-1 (enzyme, UniProt Q86ME2 1-589)
chain: MHSEEKYLHIPNNTKYPEIIVEEEEEDPSEEERSELSETDDVATPLRPSDTFPFKRRNSPCSIKMSEEHLKRLREIACPSPTPTQCSTVSKHEFQNWRINEDVMKDMMHIGTICERENVCKTSKYVYTATMASYTVTEWKLKEGNTPDEIEKISRTIEDLCQLRHKRLAPMYGYHWRLETELMVFRAHVPSGTVADLVKVSAIPQETAVRYIVHVIDALAYLHERKHVHGKLNASNLLLTISNDILLADPFIEGLPSAQKRRALLASPPEAFRSLESYPCLTPSSDIWSVGCVLVTMLTRYPPFLEHYMHFHGESLHRELVSEWCTRRQLIYSSQTLIPSASKEICELIDQIFNVDPENRPSAQNLLESHGSKSRKASLRNSLASLTTAKEPDPPKPIDDFYVEREDDEEHRKIEELRELAERGNNEGGFIPFIRWYMSRILIFSVLLVKWIGMVLCAALSLAAVAGGVFFAIFLIYNGIQIACQCSLNEGFVVLIALILLPIIILLTTLCCNNSLDRYHADVESGKVEKSRFVMKTPEKDVIVGGYILVEGSPDHDKPAEVPRKLGISEGLQSTMGNTFLGYGVDKIA
For B2, the binding [2] was “binds”.
